# Library screen at single concentrations

Sequences of proteins named here, by UniProt entry; tags and fusion partners are left off.
UniProt P9WPC5, whole entry: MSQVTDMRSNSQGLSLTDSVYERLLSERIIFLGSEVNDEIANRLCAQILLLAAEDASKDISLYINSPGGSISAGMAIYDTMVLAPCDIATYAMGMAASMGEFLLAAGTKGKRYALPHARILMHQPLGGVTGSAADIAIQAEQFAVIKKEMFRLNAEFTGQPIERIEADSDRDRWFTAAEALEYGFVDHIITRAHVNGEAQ
UniProt P9WPC3, whole entry partner: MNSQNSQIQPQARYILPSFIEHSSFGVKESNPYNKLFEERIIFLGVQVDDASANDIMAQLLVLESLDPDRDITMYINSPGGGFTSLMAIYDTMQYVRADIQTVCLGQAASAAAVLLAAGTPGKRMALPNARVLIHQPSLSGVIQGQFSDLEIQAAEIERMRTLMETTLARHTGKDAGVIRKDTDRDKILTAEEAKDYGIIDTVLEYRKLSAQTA
UniProt I6X8D2, whole entry: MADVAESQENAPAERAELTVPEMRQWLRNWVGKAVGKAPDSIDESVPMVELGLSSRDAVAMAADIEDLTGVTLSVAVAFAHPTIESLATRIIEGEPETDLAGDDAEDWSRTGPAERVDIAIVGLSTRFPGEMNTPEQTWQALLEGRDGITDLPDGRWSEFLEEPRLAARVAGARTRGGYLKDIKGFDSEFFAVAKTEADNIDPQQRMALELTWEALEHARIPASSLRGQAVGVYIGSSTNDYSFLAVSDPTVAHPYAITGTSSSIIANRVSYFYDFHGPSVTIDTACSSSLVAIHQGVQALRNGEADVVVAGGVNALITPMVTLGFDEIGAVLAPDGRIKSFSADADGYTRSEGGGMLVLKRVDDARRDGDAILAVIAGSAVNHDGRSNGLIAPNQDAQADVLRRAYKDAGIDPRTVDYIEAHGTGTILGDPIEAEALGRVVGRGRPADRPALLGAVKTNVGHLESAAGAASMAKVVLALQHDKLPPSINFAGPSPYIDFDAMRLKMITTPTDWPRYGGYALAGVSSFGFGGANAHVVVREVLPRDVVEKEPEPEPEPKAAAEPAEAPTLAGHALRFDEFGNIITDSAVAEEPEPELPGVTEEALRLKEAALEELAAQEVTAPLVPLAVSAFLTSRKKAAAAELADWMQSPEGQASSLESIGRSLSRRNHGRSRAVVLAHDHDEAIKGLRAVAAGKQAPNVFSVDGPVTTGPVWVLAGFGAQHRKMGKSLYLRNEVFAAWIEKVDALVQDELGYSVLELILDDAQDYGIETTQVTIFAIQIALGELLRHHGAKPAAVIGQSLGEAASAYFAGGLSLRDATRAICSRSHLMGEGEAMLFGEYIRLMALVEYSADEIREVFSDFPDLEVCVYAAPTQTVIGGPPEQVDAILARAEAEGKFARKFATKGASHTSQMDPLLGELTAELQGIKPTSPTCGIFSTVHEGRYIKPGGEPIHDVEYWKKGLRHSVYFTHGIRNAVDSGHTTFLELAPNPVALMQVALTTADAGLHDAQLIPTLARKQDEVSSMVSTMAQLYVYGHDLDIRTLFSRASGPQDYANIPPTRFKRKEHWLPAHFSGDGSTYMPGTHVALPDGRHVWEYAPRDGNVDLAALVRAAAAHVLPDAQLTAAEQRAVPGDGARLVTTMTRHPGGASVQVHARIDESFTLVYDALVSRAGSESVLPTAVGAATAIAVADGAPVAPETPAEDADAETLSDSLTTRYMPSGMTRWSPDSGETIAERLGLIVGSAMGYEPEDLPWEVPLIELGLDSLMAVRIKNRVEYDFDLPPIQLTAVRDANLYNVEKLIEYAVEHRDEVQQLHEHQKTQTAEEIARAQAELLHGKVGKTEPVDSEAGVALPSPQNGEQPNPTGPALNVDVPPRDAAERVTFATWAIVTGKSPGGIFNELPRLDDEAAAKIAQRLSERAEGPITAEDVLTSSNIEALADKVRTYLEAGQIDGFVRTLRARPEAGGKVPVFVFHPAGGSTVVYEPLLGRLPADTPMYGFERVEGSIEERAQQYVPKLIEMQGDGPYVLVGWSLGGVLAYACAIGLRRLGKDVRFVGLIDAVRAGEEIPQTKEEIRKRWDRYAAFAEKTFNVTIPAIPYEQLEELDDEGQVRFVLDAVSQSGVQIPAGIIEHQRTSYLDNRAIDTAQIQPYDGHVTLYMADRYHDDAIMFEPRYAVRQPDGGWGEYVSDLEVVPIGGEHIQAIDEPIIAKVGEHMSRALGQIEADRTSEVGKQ

Data taken from ChEMBL document CHEMBL3988442, “University of Dundee, Small-Polar-MMV Screening Library” (2021).

Leishmania in macrophages: 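Cell assay of Leishmania donovani living inside macrophages; the read-out is not stated. Tested at 30 µM. Direction is inferred from retests: higher values go with stronger inhibition. About 69,000 compounds were tested under these conditions; 1.5% (about 1,000) showed 50% or more at least once.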
Toxoplasma: 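Assay of Toxoplasma gondii numbers, read through their beta-galactosidase reporter with a colour substrate. Concentration: 10 µM. Higher reads as fewer parasites (inferred from which compounds were picked for retests). Of about 67,000 compounds tested this way, about 260 (0.38%) reached 50% or more in at least one test.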
ClpP1P2: 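Protease assay of ClpP1P2, read by the AMC dye that it sets free. Target: ClpP1P2, Mycobacterium tuberculosis (UniProt P9WPC5 and UniProt P9WPC3). Tested at 50 µM. Direction is inferred from only a few compounds that gave an IC50; most scored high, so higher reads as stronger inhibition. Most other retested compounds had strongly negative values. About 69,000 compounds were tested under these conditions; 0.015% (about 10) showed 50% or more at least once.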
T. brucei: 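Whole-parasite assay of Trypanosoma brucei over 72 hours; the read-out is not stated. Concentration: 30 µM. Higher reads as stronger inhibition (inferred: compounds with an IC50 in retests scored well above the rest). Values scatter widely below zero; nearly all retest evidence comes from the higher of the two concentrations used. Of about 64,000 compounds tested this way, about 940 (1.5%) reached 50% or more in at least one test.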
Pks13 thioesterase: 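Polyketide synthase Pks13, Mycobacterium tuberculosis (UniProt I6X8D2). Enzyme assay of the thioesterase domain of polyketide synthase 13; the read-out is not stated. Concentration: 30 µM. Higher reads as stronger inhibition (inferred from which compounds were picked for retests). Of about 67,000 compounds tested this way, about 300 (0.46%) reached 50% or more in at least one test.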

Results are given as percent effect. How 0% and 100% were set is not recorded. Most values in the screen are low, and negative values occur. Compounds were drawn at random from those tested, without regard to their results. Two or more numbers in one place are separate tests of the same structure; such repeats can differ widely.

For CCN1CCC(NC(=O)CN2CCc3c(ncn3C)C2)CC1 the result was Leishmania in macrophages: 15.52%; Toxoplasma: -2.081%; ClpP1P2: 3.768%; T. brucei: -5.159%; Pks13 thioesterase: -11.92%.
For CCc1cnc(N)nc1NCCN1CCCCC1 the result was Leishmania in macrophages: 16.48%; Toxoplasma: 4.569%; ClpP1P2: -16.89%; T. brucei: 12.55%; Pks13 thioesterase: -12.81%.
For Cc1nn(CCC(=O)N2CCN(Cc3cnn(C)c3C)CC2)c(C)c1Br the result was Leishmania in macrophages: -18.25%; Toxoplasma: 8.49%; ClpP1P2: -5.806%; T. brucei: -59.41%; Pks13 thioesterase: 2.28%.
For Cc1cnc(CC2COCCN(Cc3nccn3C)C2)cn1 (centres unmarked) the result was Leishmania in macrophages: 0.7853% & 18.5%; Toxoplasma: 3.763%; ClpP1P2: -8.637%; T. brucei: 22.03%; Pks13 thioesterase: 14.64%.
For O=C(c1cc2cc(F)ccc2[nH]1)N1CCC(Nc2ccc(F)cc2)CC1 the result was Leishmania in macrophages: 20.19%; Toxoplasma: 23.85%; ClpP1P2: -24.07%; T. brucei: 86.11%; Pks13 thioesterase: 70.59%.
For O=C(C1CC1)N1CCC(Nc2nc(O)cc(-c3ccsc3)n2)CC1 the result was Leishmania in macrophages: -21.32%; Toxoplasma: 2.122%; ClpP1P2: -29.68%; T. brucei: 28.24%; Pks13 thioesterase: -1.329%.
For Cc1ccc(CNC(=O)N2CCCCC2CCNS(C)(=O)=O)cc1 (centres unmarked) the result was Leishmania in macrophages: 17.2%; Toxoplasma: -26.31%; ClpP1P2: 1.421%; T. brucei: -16.11%; Pks13 thioesterase: -5.055%.
For Cc1nn(C)c(C)c1C(=O)NN1CCOCC1 the result was Leishmania in macrophages: -12.67%; Toxoplasma: -7.506%; ClpP1P2: -32.96%; T. brucei: 10.64%; Pks13 thioesterase: -9.622%.
For CN(C)C(=O)c1ccc(OC2CCOCC2)cc1 the result was Leishmania in macrophages: -19.36%; Toxoplasma: 9.491%; ClpP1P2: -7.855%; T. brucei: -19.24%; Pks13 thioesterase: -17.46%.
For CC(=O)N(C)Cc1nn(C)c2c1CN(Cc1ccsc1)C2 the result was ClpP1P2: 6.562%; Pks13 thioesterase: -21.83%.
For CC(NC(=O)c1cccc(CCC(C)(C)O)c1)c1nnc(N)s1 (centres unmarked) the result was Leishmania in macrophages: -45.8%; Toxoplasma: -9.252%; ClpP1P2: -16.19%; Pks13 thioesterase: 9.881%.
For O=C(Cc1ccccn1)N1CCc2ncnc(NC3CCC3)c2CC1.O=C(O)C(F)(F)F the result was Leishmania in macrophages: 4.39%; Toxoplasma: -1.534%; T. brucei: -10.73%.
For CN1CCCC(c2cccc(-c3cccc(F)c3)n2)C1 (centres unmarked) the result was Leishmania in macrophages: 42.62%; Toxoplasma: 7.746%; ClpP1P2: -0.8493%; T. brucei: 6.457%; Pks13 thioesterase: 8.261%.
For COCc1ccccc1CNCc1c(C)nn(C)c1N(C)C the result was Leishmania in macrophages: 4.764%; Toxoplasma: 6.376%; ClpP1P2: 10.73%; T. brucei: 9.564%; Pks13 thioesterase: 39.76%.
For CS(=O)(=O)NCCC(=O)NC1(c2ccc(F)cc2)CCCC1 the result was Leishmania in macrophages: -0.9275%; Toxoplasma: -0.4327%; ClpP1P2: 3.352%; T. brucei: -36.97%; Pks13 thioesterase: -10.15%.

The first 2 entries again:

| SMILES | Leishmania in macrophages | Toxoplasma | ClpP1P2 | T. brucei | Pks13 thioesterase |
|---|---|---|---|---|---|
| `CCN1CCC(NC(=O)CN2CCc3c(ncn3C)C2)CC1` | 15.52% | -2.081% | 3.768% | -5.159% | -11.92% |
| `CCc1cnc(N)nc1NCCN1CCCCC1` | 16.48% | 4.569% | -16.89% | 12.55% | -12.81% |